Test results taken from patent publication US10280241B2, “Tackifier compounds and methods of using the same” (Iowa State University Research Foundation, Inc., priority 2012, dated 2019).

Assay: Probe tack, modified ASTM 02979 standard (Instron load frame)
Details: for Maximum tack: maximum over selected temperatures from −50° C. to 80° C., 0.1 mm film on glass slide, 5 mm type 304 stainless steel probe; for Temperature at which maximum tack was observed: selected temperatures from −50° C. to 80° C.
Description: Tack was measured by modifications to the […] standard. On an Instron® load frame, the tackifier to be tested was applied to a glass slide at a thickness of 0.1 mm. The slide was then clamped to a flat surface and, perpendicularly, a type 304 stainless steel probe measuring 5 mm in diameter, with a 90° polished tip was place above the slide. The probe was then lowered at a rate of 0.5 mm sec^−1 and contacted the surface at an average force of 1.5 N. The probe was then held on the surface for 1.0 sec and then raised at a rate of 0.5 mm sec^−1. Tack was measured as the maximum force required to remove the probe from the surface of the tackifier. Tg was measured by DSC.

| SMILES | Maximum tack [kPa] | Temperature at which maximum tack was observed [°C] |
| --- | --- | --- |
| O=C(O)CCC(=O)OC1COC2C(OC(=O)CCC(=O)O)COC12 (stereo not shown) [3a] | 168 | 25 |
| O=C(O)CCCC(=O)O[C@H]1CO[C@H]2[C@@H]1OC[C@H]2OC(=O)CCCC(=O)O [3b] | 112 | 25 |
| O=C(O)C=CC(=O)O[C@H]1CO[C@H]2[C@@H]1OC[C@H]2OC(=O)C=CC(=O)O [3c] | 130 | 60 |
| O=C(O)CCC(=O)O[C@@H]1CO[C@H]2[C@@H]1OC[C@H]2OC(=O)CCC(=O)O [5a] | 121 | 25 |
| O=C(O)CCCC(=O)O[C@@H]1CO[C@H]2[C@@H]1OC[C@H]2OC(=O)CCCC(=O)O [5b] | 107 | 60 |
